Measurements as given in publication PMC8143632.
Results are given in words; binding and its absence hold for the method and conditions named. In cells and extracts the contact can be indirect. Some results given as binding are weak or reduced against the parent protein; the word gives no strength. Sequences can lack the tags named with a protein.

By UniProt entry, the sequences of proteins in these tests, tags left out.
UniProt Q96QT6: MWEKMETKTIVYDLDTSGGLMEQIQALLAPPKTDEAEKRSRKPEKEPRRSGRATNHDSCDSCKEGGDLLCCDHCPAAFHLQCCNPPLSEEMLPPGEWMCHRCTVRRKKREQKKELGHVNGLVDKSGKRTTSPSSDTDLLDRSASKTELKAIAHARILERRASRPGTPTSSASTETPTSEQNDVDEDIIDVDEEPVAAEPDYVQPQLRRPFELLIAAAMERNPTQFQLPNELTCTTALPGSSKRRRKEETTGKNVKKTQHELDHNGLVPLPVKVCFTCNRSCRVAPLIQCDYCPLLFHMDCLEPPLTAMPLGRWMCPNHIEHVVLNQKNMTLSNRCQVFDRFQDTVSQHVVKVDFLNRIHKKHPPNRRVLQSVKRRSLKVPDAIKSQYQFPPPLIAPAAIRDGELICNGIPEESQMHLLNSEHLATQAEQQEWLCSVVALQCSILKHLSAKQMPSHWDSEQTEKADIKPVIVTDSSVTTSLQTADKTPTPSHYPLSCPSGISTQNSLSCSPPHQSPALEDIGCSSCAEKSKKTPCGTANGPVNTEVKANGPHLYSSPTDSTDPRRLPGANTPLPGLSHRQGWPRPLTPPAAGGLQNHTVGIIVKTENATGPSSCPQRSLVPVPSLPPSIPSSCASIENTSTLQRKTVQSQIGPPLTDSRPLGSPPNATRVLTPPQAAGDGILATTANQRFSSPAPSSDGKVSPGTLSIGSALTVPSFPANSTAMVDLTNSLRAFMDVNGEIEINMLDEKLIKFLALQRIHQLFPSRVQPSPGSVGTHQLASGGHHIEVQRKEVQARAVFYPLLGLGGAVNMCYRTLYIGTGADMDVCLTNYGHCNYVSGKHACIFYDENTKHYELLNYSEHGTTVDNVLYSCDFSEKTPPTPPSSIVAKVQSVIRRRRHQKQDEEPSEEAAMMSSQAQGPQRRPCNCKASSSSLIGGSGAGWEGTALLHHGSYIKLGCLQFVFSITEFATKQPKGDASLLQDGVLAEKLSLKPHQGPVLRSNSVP
UniProt Q92769: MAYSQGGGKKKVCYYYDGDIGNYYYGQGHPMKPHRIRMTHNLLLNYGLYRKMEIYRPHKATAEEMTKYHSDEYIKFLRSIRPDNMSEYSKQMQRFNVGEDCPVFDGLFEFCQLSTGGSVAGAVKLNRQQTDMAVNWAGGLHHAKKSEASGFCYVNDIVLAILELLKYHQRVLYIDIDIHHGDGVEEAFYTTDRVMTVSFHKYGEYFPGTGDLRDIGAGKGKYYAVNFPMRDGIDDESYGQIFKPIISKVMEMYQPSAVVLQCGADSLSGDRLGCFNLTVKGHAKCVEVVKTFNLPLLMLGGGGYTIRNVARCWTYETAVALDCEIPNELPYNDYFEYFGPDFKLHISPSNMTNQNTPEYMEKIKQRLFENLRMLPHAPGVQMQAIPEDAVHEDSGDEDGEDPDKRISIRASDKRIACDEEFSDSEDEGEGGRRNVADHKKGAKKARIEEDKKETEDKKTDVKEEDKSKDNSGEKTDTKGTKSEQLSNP
UniProt Q13547: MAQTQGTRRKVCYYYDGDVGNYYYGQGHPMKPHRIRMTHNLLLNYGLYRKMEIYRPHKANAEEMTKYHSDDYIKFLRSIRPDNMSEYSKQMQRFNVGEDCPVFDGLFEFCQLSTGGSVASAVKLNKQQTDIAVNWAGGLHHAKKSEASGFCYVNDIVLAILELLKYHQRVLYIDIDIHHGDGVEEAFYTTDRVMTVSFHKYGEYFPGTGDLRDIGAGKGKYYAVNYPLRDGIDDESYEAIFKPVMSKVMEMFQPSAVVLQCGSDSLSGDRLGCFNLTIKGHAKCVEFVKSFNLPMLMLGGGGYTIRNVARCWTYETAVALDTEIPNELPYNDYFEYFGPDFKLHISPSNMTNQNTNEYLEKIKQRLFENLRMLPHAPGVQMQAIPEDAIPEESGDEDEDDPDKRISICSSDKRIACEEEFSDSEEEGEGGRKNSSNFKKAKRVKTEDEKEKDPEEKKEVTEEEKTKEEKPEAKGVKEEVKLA

Key:
SIN3B_2-HaloTag (human) = target: T1, SIN3B_2-HaloTag (human) (UniProt O75182); test: cross-linking; SIN3A-HaloTag or SIN3B_2-HaloTag from Flp-In-293 cells enriched on Magne HaloTag Beads; 5 mM DSSO on the beads, room temperature, 40 min; eluted with AcTEV Protease; cross-linked peptides found by mass spectrometry (XlinkX, FDR 0.01)
T1 sequence: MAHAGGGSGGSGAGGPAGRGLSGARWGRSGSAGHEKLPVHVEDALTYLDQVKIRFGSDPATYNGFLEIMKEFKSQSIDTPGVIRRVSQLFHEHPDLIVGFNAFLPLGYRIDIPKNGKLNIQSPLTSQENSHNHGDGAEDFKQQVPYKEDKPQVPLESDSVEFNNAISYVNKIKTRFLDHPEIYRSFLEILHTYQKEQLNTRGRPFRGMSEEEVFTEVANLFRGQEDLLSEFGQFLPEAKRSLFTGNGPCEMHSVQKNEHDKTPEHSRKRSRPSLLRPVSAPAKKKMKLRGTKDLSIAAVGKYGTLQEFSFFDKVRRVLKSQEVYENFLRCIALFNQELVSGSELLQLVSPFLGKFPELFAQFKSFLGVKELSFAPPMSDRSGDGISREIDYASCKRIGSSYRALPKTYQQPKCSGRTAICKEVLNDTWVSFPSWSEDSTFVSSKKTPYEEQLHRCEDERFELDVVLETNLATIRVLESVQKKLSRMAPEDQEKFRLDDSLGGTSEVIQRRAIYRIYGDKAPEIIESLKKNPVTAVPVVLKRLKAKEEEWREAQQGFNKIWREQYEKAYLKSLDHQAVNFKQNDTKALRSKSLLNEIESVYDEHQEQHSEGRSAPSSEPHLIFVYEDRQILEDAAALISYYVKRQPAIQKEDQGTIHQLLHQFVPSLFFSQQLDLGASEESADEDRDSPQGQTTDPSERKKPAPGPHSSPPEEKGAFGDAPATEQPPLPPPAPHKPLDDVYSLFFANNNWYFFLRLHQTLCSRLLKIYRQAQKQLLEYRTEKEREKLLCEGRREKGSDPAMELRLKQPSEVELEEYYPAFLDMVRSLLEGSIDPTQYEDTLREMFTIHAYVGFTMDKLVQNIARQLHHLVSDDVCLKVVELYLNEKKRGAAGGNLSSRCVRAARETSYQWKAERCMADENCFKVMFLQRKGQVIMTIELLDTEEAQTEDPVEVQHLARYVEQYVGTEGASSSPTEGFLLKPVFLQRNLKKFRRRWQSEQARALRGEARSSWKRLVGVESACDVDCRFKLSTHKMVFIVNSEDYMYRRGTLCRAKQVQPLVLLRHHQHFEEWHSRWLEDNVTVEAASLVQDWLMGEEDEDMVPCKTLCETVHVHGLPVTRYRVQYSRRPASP

SIN3A-HaloTag (human) = target: T2, SIN3A-HaloTag (human) (UniProt Q96ST3); test: as above
T2 sequence: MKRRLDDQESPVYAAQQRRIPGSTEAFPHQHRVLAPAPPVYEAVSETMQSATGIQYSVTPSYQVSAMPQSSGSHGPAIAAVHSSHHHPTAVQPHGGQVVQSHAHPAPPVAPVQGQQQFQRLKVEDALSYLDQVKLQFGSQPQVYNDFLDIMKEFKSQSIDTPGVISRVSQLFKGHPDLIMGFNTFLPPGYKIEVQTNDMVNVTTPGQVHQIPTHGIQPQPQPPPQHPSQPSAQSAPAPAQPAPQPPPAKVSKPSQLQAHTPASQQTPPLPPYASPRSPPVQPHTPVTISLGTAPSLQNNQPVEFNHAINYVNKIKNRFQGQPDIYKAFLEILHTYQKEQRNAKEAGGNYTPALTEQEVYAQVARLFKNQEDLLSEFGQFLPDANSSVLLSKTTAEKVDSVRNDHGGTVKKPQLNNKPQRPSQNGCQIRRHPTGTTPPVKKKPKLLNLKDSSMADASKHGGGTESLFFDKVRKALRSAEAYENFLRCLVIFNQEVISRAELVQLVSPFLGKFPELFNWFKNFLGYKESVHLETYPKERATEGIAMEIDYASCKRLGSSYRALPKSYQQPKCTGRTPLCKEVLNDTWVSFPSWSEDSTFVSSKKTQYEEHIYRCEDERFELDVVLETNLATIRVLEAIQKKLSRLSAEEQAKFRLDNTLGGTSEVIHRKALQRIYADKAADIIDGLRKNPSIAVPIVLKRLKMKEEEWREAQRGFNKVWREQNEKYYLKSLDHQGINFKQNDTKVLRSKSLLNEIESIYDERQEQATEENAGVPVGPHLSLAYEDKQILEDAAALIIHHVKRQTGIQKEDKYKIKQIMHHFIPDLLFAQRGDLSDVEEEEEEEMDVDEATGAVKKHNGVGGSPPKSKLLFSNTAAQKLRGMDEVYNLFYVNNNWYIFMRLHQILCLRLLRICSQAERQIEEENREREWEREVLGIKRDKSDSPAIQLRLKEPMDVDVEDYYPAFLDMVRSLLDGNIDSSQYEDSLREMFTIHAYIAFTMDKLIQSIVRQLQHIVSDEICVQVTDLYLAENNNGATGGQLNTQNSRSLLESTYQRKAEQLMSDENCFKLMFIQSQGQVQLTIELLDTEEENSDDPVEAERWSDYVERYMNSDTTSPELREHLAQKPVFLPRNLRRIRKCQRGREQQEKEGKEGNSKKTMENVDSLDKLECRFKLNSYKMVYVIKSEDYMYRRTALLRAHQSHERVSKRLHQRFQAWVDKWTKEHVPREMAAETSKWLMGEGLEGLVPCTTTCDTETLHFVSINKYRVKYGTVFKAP

PHF12 (from UniProt Q96QT6 1-1004)
binding (SIN3B_2-HaloTag (human)): binds

HDAC2 (from UniProt Q92769 1-488)
binding (SIN3A-HaloTag (human)): binds | binding (SIN3B_2-HaloTag (human)): binds

HDAC1 (from UniProt Q13547 1-482)
binding (SIN3A-HaloTag (human)): binds | binding (SIN3B_2-HaloTag (human)): binds
